Results: patent US20200299612A1, “HIGH PERFORMING, HIGH IMPACT BLOOM ACCORD” (International Flavors & Fragrances Inc., priority 2016, published 2020)
“And” between values parts separate entries of the source, which are not always exact repeats. Equal values may be shown once. Where a name gives a salt, the structure may show the parent alone.

Assay: Experimental velocity of single fragrance ingredients (60 cm divided by time to olfactory detection) from model powder detergent in water
Conditions: Table 1, Class 1 ingredients, 10 g model powder detergent in 2 liters of water, 25° C.

C=C1CCOC(c2ccccc2)C1 (stereo not drawn) [4-methylene-2-phenyltetrahydro-2H-pyran] and CC1=CC(C)OC(C(C)c2ccccc2)C1 (stereo not drawn) [3,6-dihydro-4,6-dimethyl-2-(1-phenylethyl)-2H-pyran] are the same in “EV (Experimental velocity)” value: 10 cm/s for the first, 10 cm/s for the second.

CC/C=C\CCCCC=O [cis 6-nonen-1-al] and CCCCCCC=O [heptanal] are within 1.5-fold of each other in “EV (Experimental velocity)” value: 13 cm/s for the first, 10 cm/s for the second.

COCCc1ccccc1 [(2-methoxyethyl)benzene] and c1ccc(CCCc2ccccn2)cc1 [2-(3-phenylpropyl)pyridine] are the same in “EV (Experimental velocity)” value: 9 cm/s for the first, 9 cm/s for the second.

CC(C)Cc1nccs1 [2-isobutylthiazole] and COc1nccnc1CC(C)C [2-isobutyl-3-methoxypyrazine] are within 1.5-fold of each other in “EV (Experimental velocity)” value: 10 cm/s for the first, 9 cm/s for the second.

COC(=O)c1ccccc1N [methyl 2-aminobenzoate] and CC(=O)c1oc2ccccc2c1C [1-(3-methylbenzofuran-2-yl)ethan-1-one] are within 1.5-fold of each other in “EV (Experimental velocity)” value: 9 cm/s for the first, 10 cm/s for the second.

CC12CCC(CC1)C(C)(C)O2 [1,3,3-trimethyl-2-oxabicyclo[2.2.2]octane] and CC1C(C)(C)C2CC[C@@H]3CC(C)(C)O[C@@H]3C2C1(C)C (stereo partly drawn) [(3aR,8bS)-2,2,6,6,7,8,8-heptamethyldecahydro-2H-indeno[4,5-b]furan] are within 1.5-fold of each other in “EV (Experimental velocity)” value: 13 cm/s for the first, 12 cm/s for the second.

CC1=CC(C)C(C=O)C(C)C1 (stereo not drawn) [2,4,6-trimethyl 3-cyclohexene-1-carboxaldehyde] and CC(C)=C[C@H]1C[C@@H](C)CCO1 [(2R,4S)-4-methyl-2-(2-methylprop-1-en-1-yl)tetrahydro-2H-pyran] are within 1.5-fold of each other in “EV (Experimental velocity)” value: 13 cm/s for the first, 12 cm/s for the second.

CCCCCCCCCC=O [decanal] and CCCCCCCCC=O [nonanal] are within 1.5-fold of each other in “EV (Experimental velocity)” value: 9 cm/s for the first, 13 cm/s for the second.

CCC[C@H]1CCO[C@@H](C)S1 [(2R,4S)-2-methyl-4-propyl-1,3-oxathiane] and CCOC(=O)C(C)CC (stereo not drawn) [ethyl 2-methylbutanoate] are within 1.5-fold of each other in “EV (Experimental velocity)” value: 13 cm/s for the first, 12 cm/s for the second.

CC/C=C\CC/C=C/CO [2-trans 6-cis nonadienol] and CC(C)=CCCC(C)=CC=O [3,7-dimethyl-2,6-octadienal] are within 1.5-fold of each other in “EV (Experimental velocity)” value: 12 cm/s for the first, 10 cm/s for the second.

CCCCCC(=O)OCC [ethyl hexanoate] and CCCC(C)C(=O)OCC (stereo not drawn) [ethyl 2-methylpentanoate] are within 1.5-fold of each other in “EV (Experimental velocity)” value: 10 cm/s for the first, 9 cm/s for the second.

First: c1ccc(Oc2ccccc2)cc1 [oxydibenzene]
Second: COc1ccc(C)cc1 [1-methoxy-4-methylbenzene]
The “EV (Experimental velocity)” value of the first is 1.6-fold higher: 14 cm/s for the first, 9 cm/s for the second.

c1coc(CSSCc2ccco2)c1 [2,2′-(dithiodimethylene)di-furan] and C=CCCC(=O)C1=CCCC(C)(C)C1 [1-(5,5-dimethylcyclohex-1-en-1-yl)pent-4-en-1-one] are within 1.5-fold of each other in “EV (Experimental velocity)” value: 8 cm/s for the first, 10 cm/s for the second.

Same assay, conditions: Table 2, Class 2 ingredients, 10 g model powder detergent in 2 liters of water, 25° C.

CC/C=C(\C)C(O)CCCCC (stereo not drawn) [(E)-4-methyldec-3-en-5-ol] and CCCCCCCCC(C)C=O (stereo not drawn) [2-methyl decanal] are the same in “EV (Experimental velocity)” value: 7 cm/s for the first, 7 cm/s for the second.

CCc1ccc(CC(C)(C)C=O)cc1 [3-(4-ethylphenyl)-2,2-dimethylpropanal] and CC(C=O)Cc1ccc(C(C)(C)C)cc1 (stereo not drawn) [3-(4-(tert-butyl)phenyl)-2-methylpropanal] are the same in “EV (Experimental velocity)” value: 6 cm/s for the first, 6 cm/s for the second.

CCCCCC1CCCC1=O (stereo not drawn) [2-pentylcyclopentan-1-one] and CCCCCC1=C(C)CCC1=O [3-methyl-2-pentylcyclopent-2-en-1-one] are within 1.5-fold of each other in “EV (Experimental velocity)” value: 7 cm/s for the first, 6 cm/s for the second.

COC(=O)c1ccccc1C [methyl 2-methylbenzoate] and COC(=O)C=Cc1ccccc1 [3-phenyl 2-propenoic acid, methyl ester] are within 1.5-fold of each other in “EV (Experimental velocity)” value: 7 cm/s for the first, 8 cm/s for the second.

C=CCCC(=O)C1=CC(C)(C)CCC1 [1-(3,3-dimethyl-1-cyclohexen-1-yl)-4-penten-1-one] and CC(=O)/C=C/C1=C(C)CCCC1(C)C [(E)-4-(2,6,6-trimethylcyclohex-1-en-1-yl)but-3-en-2-one] are within 1.5-fold of each other in “EV (Experimental velocity)” value: 5.5 cm/s for the first, 7 cm/s for the second.

CCC/C=C/CCCCC=O [(E)-dec-6-enal] and C/C=C/CCCCCCCC=O [(E)-undec-9-enal] are within 1.5-fold of each other in “EV (Experimental velocity)” value: 8 cm/s for the first, 7 cm/s for the second.

CCCCCCCCCC/C=C/C#N [(E)-tridec-2-enenitrile] and CCCCCCC=CC#N [2-nonenenitrile] are the same in “EV (Experimental velocity)” value: 6 cm/s for the first, 6 cm/s for the second.

CCCCCCC=CC=O [Accord 2-nonenal, 2-nonenal] and CCCCCCCCC/C=C/C=O [trans-2-dodecanal] are the same in “EV (Experimental velocity)” value: 6 cm/s for the first, 6 cm/s for the second.

Compared with CCCCCC=O [hexanal], CCCCCCCC=O [octanal] is 1.6-fold higher in “EV (Experimental velocity)” value: 5 cm/s for the first, 8 cm/s for the second.

CCCCCCCCCCCC#N [dodecanenitrile] and CCCCCCCCCCCC=O [dodecanal] are the same in “EV (Experimental velocity)” value: 6 cm/s for the first, 6 cm/s for the second.

First: Cc1ncsc1CCO [4-methyl-5-thiazoleethanol]
Second: CC1=CCC(=C(C)C)CC1 [1-methyl-4-(propan-2-ylidene)cyclohex-1-ene]
The “EV (Experimental velocity)” value of the first is 1.6-fold lower: 5 cm/s for the first, 8 cm/s for the second.

CC(=O)CCc1ccccc1 [4-phenylbutan-2-one] and CC(=O)OCCc1ccccc1 [phenyl ethyl acetate] are the same in “EV (Experimental velocity)” value: 7 cm/s for the first, 7 cm/s for the second.

CC1=CCC(C(C)(C)S)CC1 (stereo not drawn) [para menth-1-ene-8-thiol] and CC1=C[C@@H](C)[C@@H](C=O)CC1 [(1S,2R)-2,4-dimethylcyclohex-3-ene-1-carbaldehyde] are within 1.5-fold of each other in “EV (Experimental velocity)” value: 6 cm/s for the first, 8 cm/s for the second.

CCC(=O)OC1CC2CC1C1C=CCC21 (stereo not drawn) [3a,4,5,6,7,7a-hexahydro-1H-4,7-methanoinden-5-yl propionate] and CC(C)C(=O)OC1CC2CC1C1C=CCC21 (stereo not drawn) [3a,4,5,6,7,7a-hexahydro-1H-4,7-methanoinden-5-yl isobutyrate] are within 1.5-fold of each other in “EV (Experimental velocity)” value: 6 cm/s for the first, 5 cm/s for the second.

O=CCC/C=C1\CC2CC1C1CCCC21 (stereo not drawn) [(E)-4-(hexahydro-1H-4,7-methanoinden-5(6H)-ylidene)butanal] and O=CC1CC[C@H]2[C@@H]3CC[C@@H](C3)[C@@H]12 (stereo partly drawn) [(3aS,4R,7S,7aR)-octahydro-1H-4,7-methanoindene-1-carbaldehyde] are within 1.5-fold of each other in “EV (Experimental velocity)” value: 5 cm/s for the first, 6 cm/s for the second.

CC1CCC2C(C)(C)C3CC12CC1OC(C)(C)OC13C (stereo not drawn) [2,2,5,8,8,9a-hexamethyloctahydro-3aH-4a,9-methanoazuleno[5,6-d][1,3]dioxole] and CC(C)(C)[C@@H]1CCCC[C@@H]1O [(1S,2S)-2-(tert-butyl)cyclohexan-1-ol] are the same in “EV (Experimental velocity)” value: 6 cm/s for the first, 6 cm/s for the second.

Cc1ccc(C(C)C)c(O)c1 [2-isopropyl-5-methylphenol] and C=CCc1ccc(O)c(OC)c1 [4-allyl-2-methoxyphenol] are within 1.5-fold of each other in “EV (Experimental velocity)” value: 7 cm/s for the first, 5 cm/s for the second.

CC1=CC2CC(C=O)C1CC2C(C)C (stereo not drawn) [8-isopropyl-6-methylbicyclo[2.2.2] oct-5-ene-2-carbaldehyde] and CC(C)C1CCC(CS)C(S)C1 (stereo not drawn) [para menthane-2,7-dithiol] are within 1.5-fold of each other in “EV (Experimental velocity)” value: 6 cm/s for the first, 5 cm/s for the second.

CCCOC(C)OCCc1ccccc1 (stereo not drawn) [(2-(1-propoxyethoxy)ethyl)benzene] and O=CC=Cc1ccccc1 [cinnamaldehyde] are within 1.5-fold of each other in “EV (Experimental velocity)” value: 6 cm/s for the first, 7 cm/s for the second.

CC1=CCC(/C=C/C(C)C(C)O)C1(C)C (stereo not drawn) [(E)-3-methyl-5-(2,2,3-trimethylcyclopent-3-en-1-yl)pent-4-en-2-ol] and CC(=O)/C=C/C1C(C)=CCCC1(C)C (stereo not drawn) [(E)-4-(2,6,6-trimethylcyclohex-2-en-1-yl)but-3-en-2-one] are within 1.5-fold of each other in “EV (Experimental velocity)” value: 6 cm/s for the first, 8 cm/s for the second.

CCCCCCCCCCC=O [undecanal] and C=CCCCCCCC/C=C/CC#N [(E)-trideca-3,12-dienenitrile] are the same in “EV (Experimental velocity)” value: 6 cm/s for the first, 6 cm/s for the second.

COc1ccc2ccccc2c1 [2-methoxynaphthalene] and C/C=C/c1ccc(OC)cc1 [(E)-1-methoxy-4-(prop-1-en-1-yl)benzene] are the same in “EV (Experimental velocity)” value: 6 cm/s for the first, 6 cm/s for the second.

CC1CCC2(CCC(=O)O2)CC1 (stereo not drawn) [8-methyl-1-oxaspiro(4.5)decan-2-one] and C=CCCC(=O)C(=C)C1CCCCC1 [2-cyclohexyl-1,6-heptadien-3-one] fall in the same range of “EV (Experimental velocity)” value: 5 to 8 cm/s for the first, 5 to 8 cm/s for the second.

c1ccc2[nH]ccc2c1 [Accord 1H-indole, 1H-indole] and COc1ccc(C=O)cc1 [4-methoxybenzaldehyde] are within 1.5-fold of each other in “EV (Experimental velocity)” value: 6 cm/s for the first, 5 cm/s for the second.

CC(C)=CCC/C(C)=C/CCC=O [(E)-5,9-dimethyldeca-4,8-dienal] and CC(C)=CCC/C(C)=C/COC=O [(E)-3,7-dimethylocta-2,6-dien-1-yl formate] are the same in “EV (Experimental velocity)” value: 5 cm/s for the first, 5 cm/s for the second.

CC(=O)OCCC(C)CCC=C(C)C (stereo not drawn) [3,7-dimethyloct-6-en-1-yl acetate] and C=CC(C)(CCC=C(C)C)OC(C)=O (stereo not drawn) [3,7-dimethylocta-1,6-dien-3-yl acetate] are within 1.5-fold of each other in “EV (Experimental velocity)” value: 5 cm/s for the first, 6 cm/s for the second.

C=CC(C)(O)CCC=C(C)C (stereo not drawn) [3,7-dimethylocta-1,6-dien-3-ol] and CC/C=C\CCOC(=O)OC [(Z)-hex-3-en-1-yl methyl carbonate] are within 1.5-fold of each other in “EV (Experimental velocity)” value: 6 cm/s for the first, 7 cm/s for the second.

CC/C=C\CC/C=C/C=O [(2E,6Z)-nona-2,6-dienal] and CC(=O)/C(C)=C/C1C(C)=CCCC1(C)C (stereo not drawn) [(E)-3-methyl-4-(2,6,6-trimethylcyclohex-2-en-1-yl)but-3-en-2-one] are within 1.5-fold of each other in “EV (Experimental velocity)” value: 5 cm/s for the first, 6 cm/s for the second.

For CC/C(C)=C\CC/C(C)=C\C#N [(2Z,6Z)-3,7-dimethylnona-2,6-dienenitrile], the “EV (Experimental velocity)” value was 6 cm/s and 8 cm/s.
In the case of CC(O)COCC(C)O (stereo not drawn) [1,1′-oxybis(propan-2-ol)], the “EV (Experimental velocity)” value is reported as 8 cm/s and 6 cm/s.
